Results deposited as PubChem BioAssay AID504808 (Drosophila RNAi Screening Center, 2011)
The screen tested about 21,000 reagents; shown is an unselected part of those with a known target gene and a result. Of all reagents, 18 (0.084%) were called active. 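Raw counts without plate normalisation, one of two replicates; the ratio scores behind the calls were not deposited.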 A plus sign joins genes that one reagent is predicted to hit. Reagent sequences are not shown. Not given: the amount of reagent, the time to read-out.

- Assay: 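Chromatin factors that keep E2F targets switched off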 (primary screen)
- Cells: Drosophila S2 cells
- Reagents: long dsRNA against Drosophila genes
- Read-out: 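Dual luciferase plate measurements; E2F-specific signal taken as firefly over Renilla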
- Scale: E2F firefly: higher = more E2F reporter activity; Renilla normaliser: higher = more normaliser reporter signal
- Rule for the call: 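Called active if the normalised E2F reporter went up by over 50%; the cutoff is arbitrary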

target,DRSC id,"E2F firefly, rep 1","Renilla normaliser, rep 1",Call
CG14626,DRSC18631,46302,2901,inactive
CG16790,DRSC15156,1.39e5,6136,inactive
Syx5 (Syntaxin 5),DRSC03432,75304,3168,inactive
Acsx2 (Acyl-CoA synthetase X2),DRSC14308,1.38e5,7809,inactive
TpnC4 (Troponin C isoform 4),DRSC04856,1.12e5,4808,inactive
cal1 (chromosome alignment defect 1),DRSC15725,61937,3272,inactive
CG7737,DRSC07033,3016,225,inactive
PolD3 (DNA polymerase delta subunit 3),DRSC01961,82146,3495,inactive
CycA (Cyclin A),DRSC09132,75871,4166,inactive
CycA (Cyclin A),DRSC11123,45954,136,inactive
nop5,DRSC03582,1.66e5,5198,inactive
CG5339,DRSC04496,80596,3583,inactive
ubl (ubiquitin like),DRSC04998,1.26e5,4526,inactive
CG4025,DRSC18523,1.27e5,6073,inactive
CG5104,DRSC11765,1.45e5,8148,inactive
CG31810,DRSC01560,1.40e5,5566,inactive
CG4291,DRSC00650,78949,3801,inactive
Mco4 (Multicopper oxidase 4),DRSC20061,1.92e5,6423,inactive
Cad96Cb (Cadherin 96Cb),DRSC14243,1.00e5,5972,inactive
Cad96Cb (Cadherin 96Cb),DRSC14665,1.03e5,5745,inactive
ng3 (new glue 3),DRSC18804,1.04e5,5691,inactive
Nepl11 (Neprilysin-like 11),DRSC12333,68297,3412,inactive
fy (fuzzy),DRSC03533,1.43e5,5183,inactive
LysD + LysC (retired record),DRSC08674,1.06e5,4567,inactive
Tsp68C (Tetraspanin 68C),DRSC09295,1.46e5,3183,inactive
Plap (Phospholipase A2 activator protein),DRSC00678,89457,4511,inactive
Pfdn2 (Prefoldin 2),DRSC10618,85322,4802,inactive
CG11164,DRSC19392,1.26e5,5980,inactive
Orc6 (Origin recognition complex subunit 6),DRSC07497,1.40e5,4266,inactive
d4,DRSC04881,94844,4003,inactive
CG8229 + CG33199,DRSC05134,1.35e5,5545,inactive
Acat1 (Acetyl-CoA acetyltransferase 1),DRSC17766,8562,792,inactive
CG8916,DRSC20120,1.65e5,7010,inactive
srl (spargel),DRSC12340,1.41e5,7114,inactive
ND-15 (NADH dehydrogenase (ubiquinone) 15 kDa subunit),DRSC00311,94158,3729,inactive
CG15249,DRSC17978,1.33e5,6107,inactive
Unr (Upstream of N-ras),DRSC10761,76245,3759,inactive
Mur82C (Mucin related 82C),DRSC12011,90800,3997,inactive
Mur82C (Mucin related 82C),DRSC12212,1.67e5,7487,inactive
SelG (Selenoprotein G),DRSC19808,8691,832,inactive
Agpat1 (1-Acylglycerol-3-phosphate O-acyltransferase 1),DRSC19879,1.34e5,6236,inactive
Agpat1 (1-Acylglycerol-3-phosphate O-acyltransferase 1),DRSC19880,1.39e5,6078,inactive
CG10862,DRSC08170,97686,3913,inactive
CG9896,DRSC03962,1.26e5,4350,inactive
CG9896,DRSC04594,96658,3986,inactive
Tbca (Tubulin binding cofactor A),DRSC15395,1994,928,inactive
CG31523,DRSC12009,91766,3923,inactive
CG31523,DRSC12337,87286,4490,inactive
CG32437,DRSC11760,1.48e5,6501,inactive
CG18132,DRSC00518,1.70e5,6450,inactive
CG10803,DRSC17763,1832,884,inactive
CG10336,DRSC02037,83929,3593,inactive
Or33b (Odorant receptor 33b),DRSC03387,89484,3372,inactive
"beta4GalNAcTB (beta1,4-N-acetylgalactosaminyltransferase B)",DRSC14869,1.17e5,5514,inactive
CG14191,DRSC19546,1.22e5,120,inactive
GstO1 (Glutathione S transferase O1),DRSC10688,87742,3873,inactive
slx1 (nuclease slx1),DRSC12290,1.52e5,6821,inactive
Glo1 (Glyoxalase 1),DRSC06657,1.35e5,4586,inactive
CG15260,DRSC01977,1.07e5,4382,inactive
CG13193,DRSC06318,1.00e5,3812,inactive
CG4880,DRSC19923,1.48e5,5494,inactive
CG8379,DRSC16414,1.22e5,5659,inactive
CG3038,DRSC18618,1.01e5,5005,inactive
Takl2 (Tak1-like 2),DRSC15650,98189,5569,inactive
Elp2 (Elongator complex protein 2),DRSC06095,3008,177,inactive
CG3515,DRSC00609,1.56e5,5432,inactive
beta-Spec (beta Spectrin),DRSC20311,2.00e5,14547,inactive
Setx (Senataxin),DRSC10859,71982,2793,inactive
CG11586,DRSC08203,67019,3190,inactive
Sfmbt (Scm-related gene containing four mbt domains),DRSC02552,99031,199,active
Atg9 (Autophagy-related 9),DRSC06848,81616,3480,inactive
CG9018,DRSC08618,94110,3717,inactive
CG32814,DRSC17670,92844,2547,inactive
CG12828,DRSC06177,1.37e5,4753,inactive
CG2991,DRSC00559,87503,3338,inactive
CG15577,DRSC18065,1.03e5,4882,inactive
Rab4,DRSC07524,69496,4023,inactive
Dpp10 (Dipeptidyl peptidase 10),DRSC00942,1.35e5,5604,inactive
Dpp10 (Dipeptidyl peptidase 10),DRSC02139,1.50e5,5692,inactive
Hsp67Ba (Heat shock gene 67Ba),DRSC11191,1.06e5,5762,inactive
otk (off-track),DRSC07658,98480,4415,inactive
xmas,DRSC21306,1.30e5,6266,inactive
sty (sprouty),DRSC08737,1.14e5,4374,inactive
CG18476,DRSC15281,75177,4099,inactive
Stip1 (Stress induced phosphoprotein 1),DRSC00756,94345,3540,inactive
CG17821,DRSC06696,1.49e5,5522,inactive
Mur2B (Mucin related 2B),DRSC18545,90180,4552,inactive
Mur2B (Mucin related 2B),DRSC18546,1.35e5,6073,inactive
gom (gomdanji),DRSC04690,1.05e5,4214,inactive
DptB (Diptericin B),DRSC06001,1.49e5,4910,inactive
CG5916,DRSC15917,79210,4201,inactive
dpr2 (defective proboscis extension response 2),DRSC02370,1.52e5,4742,inactive
dpr2 (defective proboscis extension response 2),DRSC02371,1.46e5,5297,inactive
Col4a1 (Collagen type IV alpha 1),DRSC03291,91304,3568,inactive
pHCl-1 (pH-sensitive chloride channel 1),DRSC09401,1.34e5,3760,inactive
pHCl-1 (pH-sensitive chloride channel 1),DRSC09991,1.72e5,7593,inactive
pHCl-1 (pH-sensitive chloride channel 1),DRSC10589,1.64e5,8585,inactive
unc-13,DRSC17192,86702,2032,inactive
unc-13,DRSC17193,77945,2092,inactive
unc-13,DRSC17223,1718,884,inactive
Tango1 (Transport and Golgi organization 1),DRSC02127,96505,3803,inactive
TwdlP (TweedleP),DRSC14734,1.13e5,7322,inactive
Alms1a (Alstrom syndrome 1a),DRSC18558,1.01e5,5488,inactive
CG34417,DRSC17467,80618,2666,inactive
CG34417,DRSC18332,50841,3836,inactive
CG34417,DRSC18333,7874,744,inactive
CG5188,DRSC02826,1.37e5,4979,inactive

5 entries from above in another layout.
target | DRSC id | E2F firefly, rep 1 | Renilla normaliser, rep 1 | Call
CG8916 | DRSC20120 | 1.65e5 | 7010 | inactive
srl (spargel) | DRSC12340 | 1.41e5 | 7114 | inactive
ND-15 (NADH dehydrogenase (ubiquinone) 15 kDa subunit) | DRSC00311 | 94158 | 3729 | inactive
CG15249 | DRSC17978 | 1.33e5 | 6107 | inactive
Unr (Upstream of N-ras) | DRSC10761 | 76245 | 3759 | inactive
